Measured data: PubChem BioAssay AID1259308 (NCATS, 2017)
Here is a random part of about 59,000 deposited reagents. About 1,510 of all reagents (2.6%) count as active. 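Calls use total luciferase alone and ignore viability, so some active siRNAs may act by altering cell number.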 Unmarked entries are inactive.

Purpose: 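Genes whose loss raises luciferase production in HEK293 cells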 (primary screen)
System: human HEK293 embryonic kidney cells stably expressing firefly luciferase (HEK-CMV-Luc2-Hygro)
Reagents: single siRNA against human genes, 0.8 pmol siRNA per well
Duration: 72 h
Read-out: 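Reporter luminescence and viable-cell signal on separate replicate plates, given as percent of non-targeting control and median/MAD z-scores, plus per-cell luciferase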
Scale: total luciferase, z-score and total luciferase, % of control: higher = more reporter protein produced; luciferase per cell, z-score: higher = more reporter output per viable cell; viable cells, % of control: higher = more viable cells
Hit rule: 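Active when the median/MAD z-score for overall luciferase is greater than 3; a gene was taken forward for validation with new siRNAs if at least two of its three siRNAs passed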
Calls: active = raised luciferase; inactive = no rise

| Gene | PubChem SID | total luciferase, z-score | total luciferase, % of control | luciferase per cell, z-score | viable cells, % of control |
| --- | --- | --- | --- | --- | --- |
| SPTBN4 | SID160724495 | -0.149 | 78.9 | 0.249 | 82.6 |
| SPTBN4 | SID160746688 | -0.818 | 65.6 | 0.00828 | 73.2 |
| SPTBN4 | SID160746689 | -0.398 | 74 | -0.559 | 95.8 |
| ITGA3 | SID160775961 | 0.0478 | 82.8 | 0.0886 | 90.4 |
| ITGA3 | SID160775962 | 1.2 | 106 | 1.59 | 77.8 |
| ITGA3 | SID160775963 | -0.58 | 70.3 | -1.13 | 106 |
| PADI1 | SID160739353 | 0.158 | 85 | -0.531 | 109 |
| PADI1 | SID160739354 | 2.14 | 124 | 1.91 | 84.1 |
| PADI1 | SID160739355 | -0.0909 | 80.1 | -0.154 | 93.2 |
| GOLGA8J | SID160770915 | 3.56 (active) | 153 | 2.95 | 78.5 |
| GOLGA8J | SID160770916 | 0.332 | 88.5 | 1.24 | 71.3 |
| GOLGA8J | SID160770917 | -1.91 | 43.8 | -1.32 | 69.2 |
| TIMM10 | SID160738036 | 0.281 | 87.5 | -0.0167 | 98.2 |
| TIMM10 | SID160738037 | -0.294 | 76 | 0.219 | 80.2 |
| TIMM10 | SID160738038 | -0.493 | 72.1 | -0.0366 | 81.3 |
| NAT8B | SID160740854 | -0.568 | 70.6 | -0.93 | 101 |
| NAT8B | SID160740855 | -0.2 | 77.9 | -0.358 | 95.7 |
| NAT8B | SID160740856 | 0.948 | 101 | 0.467 | 99.5 |
| LPAR5 | SID160745646 | 1.18 | 105 | 1.01 | 90.3 |
| LPAR5 | SID160745647 | 0.234 | 86.5 | -0.0578 | 98.2 |
| LPAR5 | SID160745648 | 0.467 | 91.2 | 0.438 | 90.8 |
| C3AR1 | SID160729692 | -0.208 | 77.8 | 0.0714 | 85.3 |
| C3AR1 | SID160729702 | -0.47 | 72.5 | -0.0976 | 83.2 |
| C3AR1 | SID160729713 | -0.933 | 63.3 | -1.09 | 94.3 |

2 neighbouring reagents already listed, quoted:
| Gene | PubChem SID | total luciferase, z-score | total luciferase, % of control | luciferase per cell, z-score | viable cells, % of control |
| --- | --- | --- | --- | --- | --- |
| SPTBN4 | SID160746688 | -0.818 | 65.6 | 0.00828 | 73.2 |
| SPTBN4 | SID160746689 | -0.398 | 74 | -0.559 | 95.8 |

Continued.
| Gene | PubChem SID | total luciferase, z-score | total luciferase, % of control | luciferase per cell, z-score | viable cells, % of control |
| --- | --- | --- | --- | --- | --- |
| TP53TG5 | SID160732905 | 0.0528 | 82.9 | 0.502 | 81.2 |
| TP53TG5 | SID160738674 | 1.55 | 113 | 0.92 | 98.9 |
| TP53TG5 | SID160738675 | 0.253 | 86.9 | 0.0241 | 96.5 |
| MRPS12 | SID160716118 | 0.307 | 88 | -0.0747 | 100 |
| MRPS12 | SID160716119 | 0.17 | 85.3 | 0.187 | 90.7 |
| MRPS12 | SID160716120 | -0.439 | 73.2 | -1.02 | 107 |
| ACSF3 | SID160760703 | 0.645 | 94.7 | 0.342 | 96.7 |
| ACSF3 | SID160760704 | 0.375 | 89.3 | 0.285 | 92.6 |
| ACSF3 | SID160760705 | 0.63 | 94.4 | 0.0454 | 104 |
| ZNF572 | SID160757508 | -0.0885 | 80.1 | -0.0124 | 89.8 |
| ZNF572 | SID160757509 | 0.0079 | 82 | -0.0248 | 92.3 |
| ZNF572 | SID160757510 | -0.208 | 77.8 | -0.106 | 89.3 |
| TMEM80 | SID160762824 | 2.91 | 140 | 2.13 | 89.2 |
| TMEM80 | SID160762825 | 0.434 | 90.5 | 0.208 | 95.8 |
| TMEM80 | SID160762826 | -0.331 | 75.3 | -0.614 | 98.9 |
